Publication PMC7181604, “Arabidopsis FHY3 and FAR1 integrate light and strigolactone signaling to regulate branching”
For at least one entry, the source does not settle the construct or the ends of the probe. A weaker result is weaker than the reference pair of the same experiment. Tags and fusion partners may be left off the protein sequences shown.

Assays:
[1] = molecular target: T1, GST-SPL9SBP (Arabidopsis thaliana) (UniProt Q700W2); experiment: EMSA; conditions: plus His-FHY3-I (MBP control has no effect); Beyotime EMSA kit, manufacturer's protocol (binding buffer not stated); proteins stored in 5 mM Tris-Cl pH 8.0, 50 mM KCl; recombinant protein; protein details: GST (N-terminal, pGEX-4T-1); label: biotin
T1 sequence (looked up, limits assumed): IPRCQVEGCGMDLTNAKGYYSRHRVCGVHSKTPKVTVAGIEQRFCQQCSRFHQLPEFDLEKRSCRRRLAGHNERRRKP

[2] = molecular target: T2, GST-SPL15SBP (Arabidopsis thaliana) (UniProt Q9M2Q6); experiment: EMSA; conditions: plus His-FHY3-I (MBP control has no effect); Beyotime EMSA kit, manufacturer's protocol (binding buffer not stated); proteins stored in 5 mM Tris-Cl pH 8.0, 50 mM KCl; recombinant protein; protein details: GST (N-terminal, pGEX-4T-1); label: biotin
T2 sequence (looked up, limits assumed): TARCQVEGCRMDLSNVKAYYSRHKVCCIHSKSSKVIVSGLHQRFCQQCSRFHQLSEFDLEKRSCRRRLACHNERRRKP

“GAAGAAGCCAGCGAGTCCAACCATTATAGTCATGTGGTCCTCCTGATAATTGCAGGCCTA (double strand) [BRC1 promoter EMSA probe (PB01/PB02)]”: binds more weakly [1]; binds more weakly [2].
